US20150010546A1 (Ablynx, published 2015)
Results are given in words; binding and its absence hold for the method and conditions named. Some results given as binding are weak or reduced against the parent protein; the word gives no strength.

By UniProt entry, the sequences of proteins in these tests, tags left out. Where a name states a change or a piece, a line headed by the entry shows the natural chain unless it says otherwise.
UniProt P14210: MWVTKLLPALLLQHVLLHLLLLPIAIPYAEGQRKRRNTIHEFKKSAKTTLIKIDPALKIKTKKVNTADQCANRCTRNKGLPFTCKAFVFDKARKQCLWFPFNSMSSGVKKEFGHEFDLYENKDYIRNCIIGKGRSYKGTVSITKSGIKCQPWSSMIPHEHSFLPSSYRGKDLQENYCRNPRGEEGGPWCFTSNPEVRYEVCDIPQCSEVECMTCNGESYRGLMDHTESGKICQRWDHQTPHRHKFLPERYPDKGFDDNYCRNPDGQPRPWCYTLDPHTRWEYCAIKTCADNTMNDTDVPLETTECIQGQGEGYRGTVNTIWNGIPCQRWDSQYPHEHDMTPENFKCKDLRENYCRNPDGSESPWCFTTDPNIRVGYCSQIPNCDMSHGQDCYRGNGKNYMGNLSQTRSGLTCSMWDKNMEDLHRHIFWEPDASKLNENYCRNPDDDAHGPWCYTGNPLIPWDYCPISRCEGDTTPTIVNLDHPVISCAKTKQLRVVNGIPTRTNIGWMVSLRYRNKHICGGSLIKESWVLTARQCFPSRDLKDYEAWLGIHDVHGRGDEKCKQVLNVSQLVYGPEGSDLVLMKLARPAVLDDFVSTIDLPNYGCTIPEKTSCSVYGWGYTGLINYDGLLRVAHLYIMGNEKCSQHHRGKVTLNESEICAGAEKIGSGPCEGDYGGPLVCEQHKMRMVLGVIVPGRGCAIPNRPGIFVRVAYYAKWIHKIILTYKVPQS

Assays:
[1] = biological target: human HGF (R&D material and Peprotech material, values averaged over both) (human) (UniProt P14210); assay: SPR (Biacore T100), summary table; Kd cell holds a word for the binding behaviour, no Kd fitted
[2] = biological target: T1, human HGF (R&D Systems, 294-HG/CF) (human, UniProt P14210 32-728); assay: AlphaScreen competition, serial dilution of purified Nanobody; inhibition of biotinylated human HGF binding to c-Met-Fc
T1 construct: The entry begins at QRKRR, without signal peptide; Amine-coupled to the chip in SPR and biotinylated in AlphaScreen; also called rec hHGF (R&D systems)
Experimental: In brief, 5 μl of 1/5 prediluted periplasmic extract of individual Nanobody clones were incubated with 3 nM biotinylated HGF, 2 nM c-Met-Fc, streptavidin coated donor beads and anti-human IgG1 Fc Nanobody covalently coupled AlphaScreen acceptor beads. Monoclonal antibody clone 24612 (R&D systems) known to inhibit the HGF/c-Met-Fc interaction, was used as a positive control. Assays were read in an Envision AlphaScreen™ option fitted multimode reader (Perkin Elmer). Individual clones were scored as putative HGF/c-Met-Fc interaction inhibiting if the presence of the periplasmic extract decreased the fluorescent signal of the acceptor beads. Both inhibitory and non-inhibitory clones were identified. A 10-fold reduction in signal with respect to the negative control (irrelevant periplasmic extract and buffer) was used to select the HGF/c-Met inhibiting Nanobodies. As a positive control, anti-HGF monoclonal antibody (R&D systems, clone 24612) was included. FIG. 2 depicts an example of screen of periplasmic extracts using AlphaScreen.
Serial dilutions of purified Nanobodies were then analyzed for their ability to block the interaction of human HGF with c-Met-Fc using the same AlphaScreen™ assay as described above (1.4). […]

[3] = biological target: T1, human HGF (R&D Systems, 294-HG/CF); assay: AlphaScreen screen, periplasmic extract at a single dilution; inhibition of biotinylated human HGF binding to c-Met-Fc

binding [1]: binds
binding [2]: binds
binding [3]: binds
B1: 9G6 (VHH)
VHH: EVQLVESGGGLVQAGGSLRLSCAASGRTLSDYTMGWFRQAPGKEREFVARINTGGPITSYSDSVKGRFTISRDNAKNTVYLQMNSLKPEDTAVYNCAARLPTKMSPRDYSSYAYRGQGTQVTVSS
notes: anti-HGF Nanobody clone; not shown: c-myc and His6 tags
